From doi:10.1101/2020.04.03.023721
Results are given in words; binding and its absence hold for the method and conditions named. In cells and extracts the contact can be indirect. Tags and fused reporters may be left off the sequences shown.

Protein sequences, listed by entry. Tags and fused reporters are not part of them.
UniProt P49023: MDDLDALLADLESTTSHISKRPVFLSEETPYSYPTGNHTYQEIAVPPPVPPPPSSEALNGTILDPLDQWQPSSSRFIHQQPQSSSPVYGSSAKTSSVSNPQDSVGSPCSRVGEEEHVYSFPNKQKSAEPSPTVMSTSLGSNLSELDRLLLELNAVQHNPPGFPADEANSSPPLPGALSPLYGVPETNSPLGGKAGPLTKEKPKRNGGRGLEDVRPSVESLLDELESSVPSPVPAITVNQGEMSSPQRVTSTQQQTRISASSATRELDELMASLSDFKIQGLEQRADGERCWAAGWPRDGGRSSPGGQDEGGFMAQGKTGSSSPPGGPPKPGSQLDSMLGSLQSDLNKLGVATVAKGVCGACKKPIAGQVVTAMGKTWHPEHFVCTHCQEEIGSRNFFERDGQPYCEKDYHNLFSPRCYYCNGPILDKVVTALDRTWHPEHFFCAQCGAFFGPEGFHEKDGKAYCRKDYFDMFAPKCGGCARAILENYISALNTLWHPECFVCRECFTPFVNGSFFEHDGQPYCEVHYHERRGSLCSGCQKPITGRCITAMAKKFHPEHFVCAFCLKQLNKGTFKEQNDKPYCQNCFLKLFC

Target: T1, Flag-P2X7(47-595) (UniProt Q99572)
T1 sequence: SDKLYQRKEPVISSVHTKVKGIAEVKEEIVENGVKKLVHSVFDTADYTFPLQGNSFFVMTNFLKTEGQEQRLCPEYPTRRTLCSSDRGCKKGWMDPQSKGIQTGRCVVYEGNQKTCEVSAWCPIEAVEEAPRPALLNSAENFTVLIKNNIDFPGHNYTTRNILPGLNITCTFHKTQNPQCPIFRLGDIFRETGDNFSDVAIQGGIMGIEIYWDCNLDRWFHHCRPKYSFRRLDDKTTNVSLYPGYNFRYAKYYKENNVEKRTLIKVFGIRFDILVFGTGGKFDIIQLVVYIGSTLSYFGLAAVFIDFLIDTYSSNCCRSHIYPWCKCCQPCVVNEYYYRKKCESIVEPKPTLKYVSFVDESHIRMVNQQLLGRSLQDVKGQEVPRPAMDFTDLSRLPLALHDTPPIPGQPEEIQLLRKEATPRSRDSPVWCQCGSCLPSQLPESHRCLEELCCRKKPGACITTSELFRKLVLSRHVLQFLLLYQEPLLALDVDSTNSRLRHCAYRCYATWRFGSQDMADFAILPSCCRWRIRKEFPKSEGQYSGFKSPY
Test: co-IP

HA-Paxillin (from UniProt P49023 1-591)
binding: no binding
